Results are given in words; binding and its absence hold for the method and conditions named. Binding seen in cells or lysates may run through a third protein. Some entries that bind do so weakly or less than the wild type. Values belong to the molecule of their own block, whether it stands above or below them.
Tests used:
[1] = target: ATG5 (construct of the pull-downs, Fig. 3a and Supplementary Fig. 8a) (human) (UniProt Q9H1Y0); assay: pull-down
[2] = target: ATG12 (construct of the pull-downs, Fig. 3a and Supplementary Fig. 8a) (human) (UniProt O94817); assay: pull-down
[3] = target: endogenous ATG5 (human (endogenous in 293T)) (UniProt Q9H1Y0); assay: co-IP
[4] = target: endogenous ATG12 (human (endogenous in 293T)) (UniProt O94817); assay: co-IP

Chains of the proteins cited; added tags and fusions are not shown.
UniProt Q9H1Y0: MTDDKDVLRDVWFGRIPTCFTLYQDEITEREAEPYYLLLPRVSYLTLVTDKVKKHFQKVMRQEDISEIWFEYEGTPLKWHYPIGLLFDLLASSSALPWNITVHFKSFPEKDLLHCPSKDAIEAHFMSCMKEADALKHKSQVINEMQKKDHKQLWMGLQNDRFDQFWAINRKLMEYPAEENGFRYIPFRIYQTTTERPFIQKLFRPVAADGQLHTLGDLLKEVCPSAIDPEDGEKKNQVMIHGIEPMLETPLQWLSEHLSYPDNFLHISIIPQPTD
UniProt O94817: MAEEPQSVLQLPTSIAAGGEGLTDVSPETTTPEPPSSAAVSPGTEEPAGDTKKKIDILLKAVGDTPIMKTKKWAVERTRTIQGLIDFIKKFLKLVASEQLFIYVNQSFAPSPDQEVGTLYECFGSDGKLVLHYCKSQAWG
UniProt Q96KQ7: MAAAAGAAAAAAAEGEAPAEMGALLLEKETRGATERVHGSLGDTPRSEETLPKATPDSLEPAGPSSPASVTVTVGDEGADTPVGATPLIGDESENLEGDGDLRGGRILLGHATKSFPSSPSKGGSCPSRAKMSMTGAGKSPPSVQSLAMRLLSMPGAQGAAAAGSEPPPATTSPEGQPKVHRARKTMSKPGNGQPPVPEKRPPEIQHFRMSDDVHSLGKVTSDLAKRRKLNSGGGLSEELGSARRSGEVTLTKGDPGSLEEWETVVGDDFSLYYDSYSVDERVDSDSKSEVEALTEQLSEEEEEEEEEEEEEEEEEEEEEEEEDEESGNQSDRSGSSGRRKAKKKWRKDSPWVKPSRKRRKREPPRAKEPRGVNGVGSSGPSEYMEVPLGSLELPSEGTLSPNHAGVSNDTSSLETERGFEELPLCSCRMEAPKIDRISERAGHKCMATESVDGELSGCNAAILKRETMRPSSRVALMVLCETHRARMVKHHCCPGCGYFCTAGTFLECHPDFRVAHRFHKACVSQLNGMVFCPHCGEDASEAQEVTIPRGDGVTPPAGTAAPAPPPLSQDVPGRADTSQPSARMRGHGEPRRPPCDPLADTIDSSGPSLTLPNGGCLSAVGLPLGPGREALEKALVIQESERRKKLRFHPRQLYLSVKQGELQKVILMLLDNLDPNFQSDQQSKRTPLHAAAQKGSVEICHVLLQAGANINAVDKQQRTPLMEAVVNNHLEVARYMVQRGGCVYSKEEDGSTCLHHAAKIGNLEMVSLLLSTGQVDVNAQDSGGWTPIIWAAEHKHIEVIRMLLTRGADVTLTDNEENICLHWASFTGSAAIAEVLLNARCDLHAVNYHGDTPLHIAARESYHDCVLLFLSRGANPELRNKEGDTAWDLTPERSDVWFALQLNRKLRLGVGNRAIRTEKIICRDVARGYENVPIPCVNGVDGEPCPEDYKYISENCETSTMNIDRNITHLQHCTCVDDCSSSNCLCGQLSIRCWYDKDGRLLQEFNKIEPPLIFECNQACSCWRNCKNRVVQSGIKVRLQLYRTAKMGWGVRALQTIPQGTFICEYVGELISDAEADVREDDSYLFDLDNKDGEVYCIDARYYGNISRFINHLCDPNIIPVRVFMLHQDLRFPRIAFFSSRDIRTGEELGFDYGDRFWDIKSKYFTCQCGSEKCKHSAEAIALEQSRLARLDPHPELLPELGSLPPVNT

- binding [1]: binds
- binding [2]: binds
Molecule: G9a (construct of the GST pull-down, Fig. 3a) (from UniProt Q96KQ7 1-1210) (enzyme)

- binding [3]: binds
- binding [4]: binds
Molecule: endogenous G9a (from UniProt Q96KQ7 1-1210) (enzyme)

- binding [1]: binds
- binding [2]: binds
B1: JMJD2C (enzyme, UniProt Q9H3R0 1-1056)
chain: MEVAEVESPLNPSCKIMTFRPSMEEFREFNKYLAYMESKGAHRAGLAKVIPPKEWKPRQCYDDIDNLLIPAPIQQMVTGQSGLFTQYNIQKKAMTVKEFRQLANSGKYCTPRYLDYEDLERKYWKNLTFVAPIYGADINGSIYDEGVDEWNIARLNTVLDVVEEECGISIEGVNTPYLYFGMWKTTFAWHTEDMDLYSINYLHFGEPKSWYAIPPEHGKRLERLAQGFFPSSSQGCDAFLRHKMTLISPSVLKKYGIPFDKITQEAGEFMITFPYGYHAGFNHGFNCAESTNFATVRWIDYGKVAKLCTCRKDMVKISMDIFVRKFQPDRYQLWKQGKDIYTIDHTKPTPASTPEVKAWLQRRRKVRKASRSFQCARSTSKRPKADEEEEVSDEVDGAEVPNPDSVTDDLKVSEKSEAAVKLRNTEASSEEESSASRMQVEQNLSDHIKLSGNSCLSTSVTEDIKTEDDKAYAYRSVPSISSEADDSIPLSSGYEKPEKSDPSELSWPKSPESCSSVAESNGVLTEGEESDVESHGNGLEPGEIPAVPSGERNSFKVPSIAEGENKTSKSWRHPLSRPPARSPMTLVKQQAPSDEELPEVLSIEEEVEETESWAKPLIHLWQTKSPNFAAEQEYNATVARMKPHCAICTLLMPYHKPDSSNEENDARWETKLDEVVTSEGKTKPLIPEMCFIYSEENIEYSPPNAFLEEDGTSLLISCAKCCVRVHASCYGIPSHEICDGWLCARCKRNAWTAECCLCNLRGGALKQTKNNKWAHVMCAVAVPEVRFTNVPERTQIDVGRIPLQRLKLKCIFCRHRVKRVSGACIQCSYGRCPASFHVTCAHAAGVLMEPDDWPYVVNITCFRHKVNPNVKSKACEKVISVGQTVITKHRNTRYYSCRVMAVTSQTFYEVMFDDGSFSRDTFPEDIVSRDCLKLGPPAEGEVVQVKWPDGKLYGAKYFGSNIAHMYQVEFEDGSQIAMKREDIYTLDEELPKRVKARFSTASDMRFEDTFYGADIIQGERKRQRVLSSRFKNEYVADPVYRTFLKSSFQKKCQKRQ

— article doi:10.1101/2021.02.05.430008
